Results are given in words; binding and its absence hold for the method and conditions named. Some entries that bind do so weakly or less than the wild type.
Biological target: METTL9^46–318 (human) (UniProt Q9H1A3)
Assay: ITC; METTL9 protein and synthetic peptide; conditions and who was titrated not shown; both purified

Protein sequences, listed by entry. Tags and fused reporters are not part of them. Lines headed by an entry give the natural chain unless they say otherwise; changes in a name come on top. Residues count along the entry.
UniProt Q9H1A3, residues 46-318: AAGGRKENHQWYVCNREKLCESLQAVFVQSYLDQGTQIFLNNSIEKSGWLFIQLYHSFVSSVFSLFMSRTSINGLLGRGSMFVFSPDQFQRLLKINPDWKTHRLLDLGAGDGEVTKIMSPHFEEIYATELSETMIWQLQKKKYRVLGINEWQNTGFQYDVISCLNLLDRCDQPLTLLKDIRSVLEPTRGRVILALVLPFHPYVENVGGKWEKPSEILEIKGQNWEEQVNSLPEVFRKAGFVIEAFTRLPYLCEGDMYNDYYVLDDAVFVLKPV
UniProt Q6ZMH5: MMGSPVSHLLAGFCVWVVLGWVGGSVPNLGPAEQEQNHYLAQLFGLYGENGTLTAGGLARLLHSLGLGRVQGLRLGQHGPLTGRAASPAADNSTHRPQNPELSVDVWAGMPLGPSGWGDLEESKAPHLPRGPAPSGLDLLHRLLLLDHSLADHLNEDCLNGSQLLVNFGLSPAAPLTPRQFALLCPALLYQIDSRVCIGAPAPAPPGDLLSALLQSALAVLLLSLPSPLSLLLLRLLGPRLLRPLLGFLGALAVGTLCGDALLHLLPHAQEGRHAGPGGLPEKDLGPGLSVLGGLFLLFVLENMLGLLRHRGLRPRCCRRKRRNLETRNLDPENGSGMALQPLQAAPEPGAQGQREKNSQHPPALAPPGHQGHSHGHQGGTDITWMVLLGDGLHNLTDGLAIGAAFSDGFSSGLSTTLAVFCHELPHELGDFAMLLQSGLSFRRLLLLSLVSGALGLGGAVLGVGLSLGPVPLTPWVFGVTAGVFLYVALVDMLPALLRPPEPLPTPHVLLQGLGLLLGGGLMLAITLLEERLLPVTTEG
UniProt P31725: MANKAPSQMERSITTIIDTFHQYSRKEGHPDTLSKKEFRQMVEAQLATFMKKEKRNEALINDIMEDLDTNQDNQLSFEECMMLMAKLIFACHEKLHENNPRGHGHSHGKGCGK

Row | Binder | binding
1 | GHQGHSHGHQGGY (peptide, UniProt Q6ZMH5 369-380) [SLC39A5^369–380 peptide] | binds
2 | RGHGHSHGKGC (peptide, UniProt P31725 101-111) [mouse S100A9^101–111 peptide] | binds

Source: article PMC10073072
